In the supplement of paper PMC8728848:
This is one part of the list.

What was measured:
Experiment in all cases: glycan array binding signal (z-score within array); higher = stronger binding
Settings in all cases: glycan notation: IUPAC condensed, linker removed
[1] = molecular target: Neu5Ac(a2-6)GlcNAc(b1-4)GlcNAc(b1-4)GlcNAc
How it was run: (§1)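 Arrays were curated from the Consortium for Functional Glycomics database, 3228 in total, and kept only where the protein sequence was available. Binding is expressed as a within-array Z-score. This score was averaged across arrays of the same protein sequence at different concentrations or buffers and across linkers, and negative values can be read as non-binding.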

[2] = molecular target: Neu5Ac(a2-8)Neu5Ac
How it was run: as §1

[3] = molecular target: Neu5Ac(a2-8)Neu5Ac(a2-3)Gal(b1-3)GalNAc(b1-4)[Neu5Ac(a2-3)]Gal(b1-4)Glc
How it was run: as §1

[4] = molecular target: Neu5Ac(a2-8)Neu5Ac(a2-3)Gal(b1-3)GalNAc(b1-4)[Neu5Ac(a2-8)Neu5Ac(a2-3)]Gal(b1-4)Glc
How it was run: as §1

[5] = molecular target: Neu5Ac(a2-8)Neu5Ac(a2-3)Gal(b1-4)Glc
How it was run: as §1

[6] = molecular target: Neu5Ac(a2-8)Neu5Ac(a2-3)Gal(b1-4)GlcNAc
How it was run: as §1

[7] = molecular target: Neu5Ac(a2-8)Neu5Ac(a2-3)[Gal(b1-3)GalNAc(b1-4)]Gal(b1-4)Glc
How it was run: as §1

[8] = molecular target: Neu5Ac(a2-8)Neu5Ac(a2-3)[GalNAc(b1-4)]Gal(b1-4)Glc
How it was run: as §1

[9] = molecular target: Neu5Ac(a2-8)Neu5Ac(a2-8)Neu5Ac
How it was run: as §1

[10] = molecular target: Neu5Ac(a2-8)Neu5Ac(a2-8)Neu5Ac(a2-3)Gal(b1-4)Glc
How it was run: as §1

[11] = molecular target: Neu5Ac(a2-8)Neu5Ac(a2-8)Neu5Ac(a2-3)[Gal(b1-3)GalNAc(b1-4)]Gal(b1-4)Glc
How it was run: as §1

[12] = molecular target: Neu5Ac(a2-8)Neu5Ac(a2-8)Neu5Ac(a2-3)[GalNAc(b1-4)]Gal(b1-4)Glc
How it was run: as §1

[13] = molecular target: Neu5Ac(a2-8)Neu5Ac(a2-8)Neu5Ac(a2-8)Neu5Ac(a2-3)[GalNAc(b1-4)]Gal(b1-4)Glc
How it was run: as §1

[14] = molecular target: Neu5Ac(a2-8)Neu5Gc(a2-3)Gal(b1-4)GlcNAc
How it was run: as §1

[15] = molecular target: Neu5Ac(b2-6)Gal(b1-4)GlcNAc
How it was run: as §1

[16] = molecular target: Neu5Ac(b2-6)GalNAc
How it was run: as §1

[17] = molecular target: Neu5Ac9Ac(a2-3)Gal(b1-3)GlcNAc
How it was run: as §1

[18] = molecular target: Neu5Ac9Ac(a2-3)Gal(b1-4)GlcNAc
How it was run: as §1

[19] = molecular target: Neu5Ac9Ac(a2-6)Gal(b1-4)GlcNAc
How it was run: as §1

[20] = molecular target: Neu5Gc(a2-3)Gal(b1-3)GlcNAc
How it was run: as §1

[21] = molecular target: Neu5Gc(a2-3)Gal(b1-3)[Fuc(a1-4)]GlcNAc
How it was run: as §1

[22] = molecular target: Neu5Gc(a2-3)Gal(b1-4)Glc
How it was run: as §1

[23] = molecular target: Neu5Gc(a2-3)Gal(b1-4)GlcNAc
How it was run: as §1

[24] = molecular target: Neu5Gc(a2-3)Gal(b1-4)GlcNAc(b1-3)Gal(b1-4)GlcNAc(b1-2)Man(a1-3)[Neu5Gc(a2-3)Gal(b1-4)GlcNAc(b1-3)Gal(b1-4)GlcNAc(b1-2)Man(a1-6)]Man(b1-4)GlcNAc(b1-4)GlcNAc
How it was run: as §1

[25] = molecular target: Neu5Gc(a2-3)Gal(b1-4)[Fuc(a1-3)]GlcNAc
How it was run: as §1

[26] = molecular target: Neu5Gc(a2-6)Gal(b1-4)GlcNAc
How it was run: as §1

[27] = molecular target: Neu5Gc(a2-6)GalNAc
How it was run: as §1

[28] = molecular target: Neu5Gc(a2-8)Neu5Ac(a2-3)Gal(b1-4)GlcNAc
How it was run: as §1

[29] = molecular target: Neu5Gc(a2-8)Neu5Gc(a2-3)Gal(b1-4)GlcNAc
How it was run: as §1

[30] = molecular target: Neu5Gc(a2-8)Neu5Gc(a2-3)Gal(b1-4)GlcNAc(b1-3)Gal(b1-4)GlcNAc
How it was run: as §1

[31] = molecular target: Neu5Gc(a2-8)Neu5Gc(a2-6)Gal(b1-4)GlcNAc
How it was run: as §1

[32] = molecular target: Neu5Gc(b2-6)Gal(b1-4)GlcNAc
How it was run: as §1

B1: PX14343F-bfa-562-20-562 (Bacteroides fragilis) (protein)
chain: CDDFLDSFPQDTVTNENFWKSKEDADKVLVDIYASLLPKDAIFFDEAMSDNAYLVWDWWGGAQQVANGSYTTSGEIPTNRWNGSYEVIRKCWFLLEGIEKIEDISEQDKNKIIGETYFMLAYNYYVLTSYFGDVPLVTKTLAIPESKQLVRTPKAEVVDYAINKLKEAAVMLEGLSQEKGRVTADACRFLIARMYLYNGDYSNVLETVKLLEGKYQLYREGDTPYEDLFSGVAENSCEVILSVVCDKRVGEIYTSHGGNGIMLLKGITGEDPYRGVTPSGSLVDAYPMADGRLIHEAGSSYDPKKPYEGRDPRFYQSIVYPTGQIKYLDVETGTVKERLYDPEDPTTVPEHQYNYSQPSATGYMWNKYIDYSVYAMNSVWDCTNDIIVFRYADVLLMKAEALLQTKGESAKEEVCNLIDQLRDRCSCGRVHRENYNSKDELMELLKNERRIELANEGLRYMDLIRWKDAEKNTIVTGVGLTGQMYGAYMRKDGVGKDDKTVDVDNTPRRYIETRYFNASKGYLFPIPQKERDLNPNLTQNPNW
glycan array binding signal (z-score) [1]: -0.673 | glycan array binding signal (z-score) [2]: -0.003 | glycan array binding signal (z-score) [3]: 0.302 | glycan array binding signal (z-score) [4]: -0.512 | glycan array binding signal (z-score) [5]: -0.774 | glycan array binding signal (z-score) [6]: -0.606 | glycan array binding signal (z-score) [7]: -0.69 | glycan array binding signal (z-score) [8]: 1.74 | glycan array binding signal (z-score) [9]: 0.358 | glycan array binding signal (z-score) [10]: 0.121 | glycan array binding signal (z-score) [11]: -0.257 | glycan array binding signal (z-score) [12]: 0.766 | glycan array binding signal (z-score) [13]: 0.09 | glycan array binding signal (z-score) [14]: 19.1 | glycan array binding signal (z-score) [15]: -0.671 | glycan array binding signal (z-score) [16]: -0.688 | glycan array binding signal (z-score) [17]: -0.892 | glycan array binding signal (z-score) [18]: -0.067 | glycan array binding signal (z-score) [19]: -0.756 | glycan array binding signal (z-score) [20]: 0.39 | glycan array binding signal (z-score) [21]: -0.055 | glycan array binding signal (z-score) [22]: 0.416 | glycan array binding signal (z-score) [23]: 0.613 | glycan array binding signal (z-score) [24]: 0.242 | glycan array binding signal (z-score) [25]: -0.332 | glycan array binding signal (z-score) [26]: -0.418 | glycan array binding signal (z-score) [27]: -0.551 | glycan array binding signal (z-score) [28]: -0.397 | glycan array binding signal (z-score) [29]: 0.033 | glycan array binding signal (z-score) [30]: 0.2 | glycan array binding signal (z-score) [31]: -0.938 | glycan array binding signal (z-score) [32]: 0.514
